No constants are given. Whether binding was seen depends on the method and setting. Binding seen in cells or lysates may run through a third protein. For part of these data: Binding can be weak; no strength is given. For part of these data: Tags and fused reporters may be left off the sequences shown.
Tests used:
[1] = biological target: 3xFLAG-Yb (Drosophila melanogaster) (UniProt Q9W4W2); test: co-IP; OSCs transfected with 3xFLAG- and HA-tagged constructs, Pierce IP lysis buffer; anti-FLAG M2 magnetic beads overnight at 4°C, washes in TBS; western blot; also with RNase I treatment and with knockdown of endogenous Yb
[2] = biological target: T1, 3xFLAG-tagged Nup54 (Drosophila melanogaster) (UniProt Q9V6B9); test: co-IP; S2 cells transfected with 3xFLAG- and HA-tagged constructs, lysed after 48 hr in Pierce IP lysis buffer; anti-FLAG M2 magnetic beads overnight at 4°C, washes 3 x 15 min in TBS; western blot
T1 sequence: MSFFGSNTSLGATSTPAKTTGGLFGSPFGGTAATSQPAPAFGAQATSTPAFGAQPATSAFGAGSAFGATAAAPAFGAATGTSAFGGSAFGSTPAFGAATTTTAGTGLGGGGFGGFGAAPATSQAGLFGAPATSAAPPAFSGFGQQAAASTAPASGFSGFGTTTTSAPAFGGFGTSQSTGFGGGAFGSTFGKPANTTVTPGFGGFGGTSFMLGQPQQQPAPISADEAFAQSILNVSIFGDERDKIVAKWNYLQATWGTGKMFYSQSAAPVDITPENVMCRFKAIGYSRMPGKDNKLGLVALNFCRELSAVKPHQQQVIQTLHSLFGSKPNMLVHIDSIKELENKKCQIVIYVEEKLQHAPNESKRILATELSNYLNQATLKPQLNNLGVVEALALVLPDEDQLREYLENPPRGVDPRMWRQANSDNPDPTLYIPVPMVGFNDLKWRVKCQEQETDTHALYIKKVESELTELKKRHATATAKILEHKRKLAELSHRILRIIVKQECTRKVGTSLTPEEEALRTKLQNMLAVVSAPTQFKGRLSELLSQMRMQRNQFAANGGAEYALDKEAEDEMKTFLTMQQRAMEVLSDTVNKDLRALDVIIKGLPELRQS

By UniProt entry, the sequences of proteins in these tests, tags left out. Where a name states a change or a piece, a line headed by the entry shows the natural chain unless it says otherwise.
UniProt Q9W4W2: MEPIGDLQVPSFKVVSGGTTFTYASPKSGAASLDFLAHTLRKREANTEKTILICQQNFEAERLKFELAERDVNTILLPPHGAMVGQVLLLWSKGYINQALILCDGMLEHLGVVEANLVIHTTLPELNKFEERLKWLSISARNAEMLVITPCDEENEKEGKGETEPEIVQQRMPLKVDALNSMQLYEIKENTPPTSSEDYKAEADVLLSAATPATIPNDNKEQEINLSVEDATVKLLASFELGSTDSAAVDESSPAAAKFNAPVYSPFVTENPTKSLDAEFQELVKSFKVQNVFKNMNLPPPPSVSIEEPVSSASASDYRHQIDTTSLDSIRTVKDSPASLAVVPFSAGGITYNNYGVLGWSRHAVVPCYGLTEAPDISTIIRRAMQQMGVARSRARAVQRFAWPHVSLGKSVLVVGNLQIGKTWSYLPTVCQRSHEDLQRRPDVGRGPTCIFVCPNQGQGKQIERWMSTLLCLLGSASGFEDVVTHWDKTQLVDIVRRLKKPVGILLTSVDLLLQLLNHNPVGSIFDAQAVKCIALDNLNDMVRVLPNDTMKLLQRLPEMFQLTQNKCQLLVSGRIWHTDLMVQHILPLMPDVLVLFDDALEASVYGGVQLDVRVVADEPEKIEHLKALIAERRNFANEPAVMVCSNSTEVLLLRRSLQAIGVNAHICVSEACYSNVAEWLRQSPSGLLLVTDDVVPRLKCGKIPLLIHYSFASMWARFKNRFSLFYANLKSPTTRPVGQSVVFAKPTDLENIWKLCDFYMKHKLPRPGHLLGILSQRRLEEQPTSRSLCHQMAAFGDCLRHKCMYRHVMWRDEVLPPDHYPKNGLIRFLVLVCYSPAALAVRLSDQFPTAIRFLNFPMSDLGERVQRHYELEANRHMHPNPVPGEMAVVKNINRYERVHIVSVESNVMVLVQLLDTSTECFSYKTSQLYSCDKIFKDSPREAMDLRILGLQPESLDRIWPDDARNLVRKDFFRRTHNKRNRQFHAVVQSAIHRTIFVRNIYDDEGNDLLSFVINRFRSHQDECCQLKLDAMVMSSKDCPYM
UniProt Q9U1H9: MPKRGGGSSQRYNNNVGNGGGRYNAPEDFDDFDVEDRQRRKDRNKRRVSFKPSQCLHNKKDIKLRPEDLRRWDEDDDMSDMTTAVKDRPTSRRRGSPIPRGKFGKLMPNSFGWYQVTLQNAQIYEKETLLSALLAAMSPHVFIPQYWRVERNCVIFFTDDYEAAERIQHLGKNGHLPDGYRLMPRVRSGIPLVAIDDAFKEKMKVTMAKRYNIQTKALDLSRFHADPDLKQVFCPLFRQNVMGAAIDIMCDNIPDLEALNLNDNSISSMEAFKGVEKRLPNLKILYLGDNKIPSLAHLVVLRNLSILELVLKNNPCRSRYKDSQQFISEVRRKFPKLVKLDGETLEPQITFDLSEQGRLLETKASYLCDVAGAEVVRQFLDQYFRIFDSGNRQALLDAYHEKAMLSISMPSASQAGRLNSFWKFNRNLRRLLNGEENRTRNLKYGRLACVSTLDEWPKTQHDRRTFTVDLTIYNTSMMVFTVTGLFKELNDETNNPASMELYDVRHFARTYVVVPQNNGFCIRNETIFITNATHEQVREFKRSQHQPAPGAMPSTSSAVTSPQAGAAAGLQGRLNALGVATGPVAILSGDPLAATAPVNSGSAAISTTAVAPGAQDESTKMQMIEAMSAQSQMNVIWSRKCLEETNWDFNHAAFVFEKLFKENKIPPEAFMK

[3] = biological target: T2, 3xFLAG-tagged Nup58 (Drosophila melanogaster) (UniProt Q9VDV3); test: as above
T2 sequence: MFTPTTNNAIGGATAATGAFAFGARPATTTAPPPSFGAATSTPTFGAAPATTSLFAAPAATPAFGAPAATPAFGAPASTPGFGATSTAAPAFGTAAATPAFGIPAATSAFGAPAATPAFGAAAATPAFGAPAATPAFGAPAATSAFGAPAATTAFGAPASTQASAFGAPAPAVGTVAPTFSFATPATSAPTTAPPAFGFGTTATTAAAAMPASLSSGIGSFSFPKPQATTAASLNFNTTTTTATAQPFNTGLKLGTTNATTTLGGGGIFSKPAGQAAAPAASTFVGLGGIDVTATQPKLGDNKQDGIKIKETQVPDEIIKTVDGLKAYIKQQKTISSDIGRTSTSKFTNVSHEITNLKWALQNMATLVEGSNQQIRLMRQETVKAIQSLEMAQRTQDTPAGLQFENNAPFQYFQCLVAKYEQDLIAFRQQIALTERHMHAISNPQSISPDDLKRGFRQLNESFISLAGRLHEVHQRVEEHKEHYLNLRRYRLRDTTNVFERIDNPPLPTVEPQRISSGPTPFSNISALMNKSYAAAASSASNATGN

[4] = biological target: T1, 3xFLAG-tagged Nup54 (Drosophila melanogaster); test: co-IP; OSCs transfected with 3xFLAG- and HA-tagged constructs, Pierce IP lysis buffer; anti-FLAG M2 magnetic beads overnight at 4°C, washes in TBS; western blot; also with RNase I treatment and with knockdown of endogenous Yb
[5] = biological target: T2, 3xFLAG-tagged Nup58 (Drosophila melanogaster); test: as above

binding [1]	binding [2]	binding [3]	binding [4]	binding [5]	Substance
no binding					HA-tagged Nxf1 (from UniProt Q9U1H9 1-672)
	no binding				Nup58 lacking the C-terminal domain (∆C) (Drosophila melanogaster) (domain or fragment)
	binds	binds	binds	binds	HA-tagged Yb (Drosophila melanogaster)
		no binding			Nup54 lacking the C-terminal domain (∆C) (Drosophila melanogaster) (domain or fragment)
			binds	binds	Yb with deletion of the HelC domain (Drosophila melanogaster)
